{"source": "PubChem BioAssay AID602196 – INSERM | 2012", "purpose": "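Genes whose knock-down alters cisplatin killing of lung cancer cells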", "cells": "human A549 lung cancer cells", "knock-down reagent": "siRNA pair against human genes", "timing": "48 h transfection before cisplatin; time from cisplatin to read-out not stated", "conditions": "cisplatin at a dose killing half of control-siRNA cells; exact dose and duration not given", "read-out": "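Shift in cisplatin death relative to control siRNA, from -50 (all cells die) to +50 (no cells die); siRNAs harmful on their own scored 0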", "scale": "two-siRNA summed score (-2 to +2): higher = both siRNAs protect from cisplatin killing; -2 means both sensitise", "call rule": "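siRNAs harmful alone (LDH or WST-1) get 0; others get +1 for less and -1 for more cisplatin killing; genes are active when the two siRNAs give the same sign, summing to ±2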", "calls": "active = both siRNAs shift cisplatin killing the same way; inactive = no consistent shift, or siRNA harmful alone", "note": "The deposit covers about 23,000 reagents; below is a part drawn at random. Over the whole deposit, 455 (2%) were called active. 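Active includes both protection and sensitisation; some change values fall well beyond the stated -50 to +50 range.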 Entries without a mark were called inactive. Further read-outs or replicates are left out here. The record does not give: the amount of reagent."}
{"Gene": "CBX3 (chromobox 3)", "two-siRNA summed score (-2 to +2)": 0}
{"Gene": "CLRN1 (clarin 1)", "two-siRNA summed score (-2 to +2)": 0}
{"Gene": "LOC387870", "two-siRNA summed score (-2 to +2)": 0}
{"Gene": "EVL (Enah/Vasp-like)", "two-siRNA summed score (-2 to +2)": 0}
{"Gene": "LOC441465", "two-siRNA summed score (-2 to +2)": 0}
{"Gene": "NUDT21 (nudix hydrolase 21)", "two-siRNA summed score (-2 to +2)": 0}
{"Gene": "EML5 (EMAP like 5)", "two-siRNA summed score (-2 to +2)": 0}
{"Gene": "HSD17B11 (hydroxysteroid 17-beta dehydrogenase 11)", "two-siRNA summed score (-2 to +2)": -1}
{"Gene": "ARHGAP30 (Rho GTPase activating protein 30)", "two-siRNA summed score (-2 to +2)": 0}
{"Gene": "MMS19 (MMS19 cytosolic iron-sulfur assembly component)", "two-siRNA summed score (-2 to +2)": 0}
{"Gene": "LOC440729", "two-siRNA summed score (-2 to +2)": 0}
{"Gene": "LOC441706", "two-siRNA summed score (-2 to +2)": 0}
{"Gene": "WNT10B (Wnt family member 10B)", "two-siRNA summed score (-2 to +2)": 0}
{"Gene": "LINC00482 (long independently transcribed non-coding RNA 482)", "two-siRNA summed score (-2 to +2)": 0}
{"Gene": "ASMTL (acetylserotonin O-methyltransferase like)", "two-siRNA summed score (-2 to +2)": 0}
{"Gene": "JAZF1 (JAZF zinc finger 1)", "two-siRNA summed score (-2 to +2)": -1}
{"Gene": "RHBDF1P1 (RHBDF1 pseudogene 1)", "two-siRNA summed score (-2 to +2)": 0}
{"Gene": "SOX8 (SRY-box transcription factor 8)", "two-siRNA summed score (-2 to +2)": 1}
{"Gene": "ASAH1 (N-acylsphingosine amidohydrolase 1)", "two-siRNA summed score (-2 to +2)": -1}
{"Gene": "CD68 (CD68 molecule)", "two-siRNA summed score (-2 to +2)": 0}
{"Gene": "PAX2 (paired box 2)", "two-siRNA summed score (-2 to +2)": -1}
{"Gene": "LINC01278 (long independently transcribed non-coding RNA 1278)", "two-siRNA summed score (-2 to +2)": 0}
{"Gene": "C1QTNF1 (C1q and TNF related 1)", "two-siRNA summed score (-2 to +2)": 0}
{"Gene": "FAM181B (family with sequence similarity 181 member B)", "two-siRNA summed score (-2 to +2)": 0}
{"Gene": "RTF1 (RTF1 homolog, Paf1/RNA polymerase II complex component)", "two-siRNA summed score (-2 to +2)": 1}
{"Gene": "MZT2B (mitotic spindle organizing protein 2B)", "two-siRNA summed score (-2 to +2)": -1}
{"Gene": "TNFRSF10A-DT (TNFRSF10A divergent transcript)", "two-siRNA summed score (-2 to +2)": 0}
{"Gene": "LOC392758", "two-siRNA summed score (-2 to +2)": 0}
{"Gene": "ZNF350 (zinc finger protein 350)", "two-siRNA summed score (-2 to +2)": 0}
{"Gene": "MPP2 (MAGUK p55 scaffold protein 2)", "two-siRNA summed score (-2 to +2)": 0}
{"Gene": "PRR19 (proline rich 19)", "two-siRNA summed score (-2 to +2)": 1}
{"Gene": "NMT1 (N-myristoyltransferase 1)", "two-siRNA summed score (-2 to +2)": -1}
{"Gene": "KIAA0657", "two-siRNA summed score (-2 to +2)": 0}
{"Gene": "EIPR1 (EARP complex and GARP complex interacting protein 1)", "two-siRNA summed score (-2 to +2)": 0}
{"Gene": "ARL17A (ARF like GTPase 17A)", "two-siRNA summed score (-2 to +2)": 0}
{"Gene": "DHRS4 (dehydrogenase/reductase 4)", "two-siRNA summed score (-2 to +2)": 0}
{"Gene": "ARHGAP22 (Rho GTPase activating protein 22)", "two-siRNA summed score (-2 to +2)": 0}
{"Gene": "SLC25A6P2", "two-siRNA summed score (-2 to +2)": 0}
{"Gene": "TMEM119 (transmembrane protein 119)", "two-siRNA summed score (-2 to +2)": 1}
{"Gene": "CPSF1 (cleavage and polyadenylation specific factor 1)", "two-siRNA summed score (-2 to +2)": 0}

Targets listed so far whose gene name starts with M or m:
{"Gene": "MMS19 (MMS19 cytosolic iron-sulfur assembly component)", "two-siRNA summed score (-2 to +2)": 0}
{"Gene": "MZT2B (mitotic spindle organizing protein 2B)", "two-siRNA summed score (-2 to +2)": -1}
{"Gene": "MPP2 (MAGUK p55 scaffold protein 2)", "two-siRNA summed score (-2 to +2)": 0}
